In the supplement of paper PMC8728848:
The list shows a part of the results.

Key:
Assay in all cases: glycan array binding signal (z-score within array); higher = stronger binding
Conditions in all cases: glycan notation: IUPAC condensed, linker removed
[1] = biological target: Neu5Ac(a2-3)Gal(b1-4)GlcNAc(b1-6)GalNAc
Outline: (§1)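 Glycan array binding is given as a within-array Z-score, which can be read as non-binding when negative. The arrays, 3228 of them, came from the Consortium for Functional Glycomics database and were retained only where the protein sequence was available. Z-scores were averaged across arrays of the same protein sequence at different concentrations or buffers and across linkers.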

[2] = biological target: Neu5Ac(a2-3)Gal(b1-4)GlcNAc(b1-6)[Gal(b1-3)]GalNAc
Outline: as §1

[3] = biological target: Neu5Ac(a2-3)Gal(b1-4)GlcNAc(b1-6)[Neu5Ac(a2-3)Gal(b1-3)]GalNAc
Outline: as §1

[4] = biological target: Neu5Ac(a2-3)Gal(b1-4)GlcNAc6S
Outline: as §1

[5] = biological target: Neu5Ac(a2-3)Gal(b1-4)[Fuc(a1-3)]GlcNAc
Outline: as §1

[6] = biological target: Neu5Ac(a2-3)Gal(b1-4)[Fuc(a1-3)]GlcNAc(b1-2)Man
Outline: as §1

[7] = biological target: Neu5Ac(a2-3)Gal(b1-4)[Fuc(a1-3)]GlcNAc(b1-3)Gal
Outline: as §1

[8] = biological target: Neu5Ac(a2-3)Gal(b1-4)[Fuc(a1-3)]GlcNAc(b1-3)Gal(b1-4)GlcNAc
Outline: as §1

[9] = biological target: Neu5Ac(a2-3)Gal(b1-4)[Fuc(a1-3)]GlcNAc(b1-3)Gal(b1-4)[Fuc(a1-3)]GlcNAc(b1-3)Gal(b1-4)[Fuc(a1-3)]GlcNAc
Outline: as §1

[10] = biological target: Neu5Ac(a2-3)Gal(b1-4)[Fuc(a1-3)]GlcNAc(b1-3)GalNAc
Outline: as §1

[11] = biological target: Neu5Ac(a2-3)Gal(b1-4)[Fuc(a1-3)]GlcNAc(b1-6)[Gal(b1-3)]GalNAc
Outline: as §1

[12] = biological target: Neu5Ac(a2-3)Gal(b1-4)[Fuc(a1-3)]GlcNAc(b1-6)[Neu5Ac(a2-3)Gal(b1-3)]GalNAc
Outline: as §1

[13] = biological target: Neu5Ac(a2-3)Gal(b1-4)[Fuc(a1-3)]GlcNAc6S
Outline: as §1

[14] = biological target: Neu5Ac(a2-3)Gal6S(b1-4)GlcNAc
Outline: as §1

[15] = biological target: Neu5Ac(a2-3)Gal6S(b1-4)[Fuc(a1-3)]GlcNAc
Outline: as §1

Neu5Ac(a2-3)GalNAc = biological target: Neu5Ac(a2-3)GalNAc
Outline: as §1

[16] = biological target: Neu5Ac(a2-3)GalNAc(b1-4)GlcNAc
Outline: as §1

[17] = biological target: Neu5Ac(a2-3)[GalNAc(b1-4)]Gal(b1-4)Glc
Outline: as §1

[18] = biological target: Neu5Ac(a2-3)[GalNAc(b1-4)]Gal(b1-4)GlcNAc
Outline: as §1

[19] = biological target: Neu5Ac(a2-3)[GalNAc(b1-4)]Gal(b1-4)GlcNAc(b1-3)GalNAc
Outline: as §1

[20] = biological target: Neu5Ac(a2-3)[Neu5Ac(a2-6)]GalNAc
Outline: as §1

Neu5Ac(a2-6)Gal = biological target: Neu5Ac(a2-6)Gal
Outline: as §1

[21] = biological target: Neu5Ac(a2-6)Gal(b1-3)GlcNAc(b1-3)[Gal(b1-4)GlcNAc(b1-6)]Gal(b1-4)Glc
Outline: as §1

Neu5Ac(a2-6)Gal(b1-4)Glc = biological target: Neu5Ac(a2-6)Gal(b1-4)Glc
Outline: as §1

[22] = biological target: Neu5Ac(a2-6)Gal(b1-4)GlcNAc
Outline: as §1

[23] = biological target: Neu5Ac(a2-6)Gal(b1-4)GlcNAc(b1-2)Man
Outline: as §1

[24] = biological target: Neu5Ac(a2-6)Gal(b1-4)GlcNAc(b1-2)Man(a1-3)Man(b1-4)GlcNAc(b1-4)GlcNAc
Outline: as §1

[25] = biological target: Neu5Ac(a2-6)Gal(b1-4)GlcNAc(b1-2)Man(a1-3)[Gal(b1-4)GlcNAc(b1-2)Man(a1-6)]Man(b1-4)GlcNAc(b1-4)GlcNAc
Outline: as §1

[26] = biological target: Neu5Ac(a2-6)Gal(b1-4)GlcNAc(b1-2)Man(a1-3)[GlcNAc(b1-2)Man(a1-6)]Man(b1-4)GlcNAc(b1-4)GlcNAc
Outline: as §1

[27] = biological target: Neu5Ac(a2-6)Gal(b1-4)GlcNAc(b1-2)Man(a1-3)[GlcNAc(b1-4)][Neu5Ac(a2-6)Gal(b1-4)GlcNAc(b1-2)Man(a1-6)]Man(b1-4)GlcNAc(b1-4)GlcNAc
Outline: as §1

[28] = biological target: Neu5Ac(a2-6)Gal(b1-4)GlcNAc(b1-2)Man(a1-3)[Man(a1-6)]Man(b1-4)GlcNAc(b1-4)GlcNAc
Outline: as §1

[29] = biological target: Neu5Ac(a2-6)Gal(b1-4)GlcNAc(b1-2)Man(a1-3)[Neu5Ac(a2-3)Gal(b1-4)GlcNAc(b1-2)Man(a1-6)]Man(b1-4)GlcNAc(b1-4)GlcNAc
Outline: as §1

[30] = biological target: Neu5Ac(a2-6)Gal(b1-4)GlcNAc(b1-2)Man(a1-3)[Neu5Ac(a2-6)Gal(b1-4)GlcNAc(b1-2)Man(a1-6)]Man(b1-4)GlcNAc(b1-4)GlcNAc
Outline: as §1

[31] = biological target: Neu5Ac(a2-6)Gal(b1-4)GlcNAc(b1-2)Man(a1-3)[Neu5Ac(a2-6)Gal(b1-4)GlcNAc(b1-2)Man(a1-6)]Man(b1-4)GlcNAc(b1-4)[Fuc(a1-6)]GlcNAc
Outline: as §1

[32] = biological target: Neu5Ac(a2-6)Gal(b1-4)GlcNAc(b1-2)Man(a1-6)Man(b1-4)GlcNAc(b1-4)GlcNAc
Outline: as §1

[33] = biological target: Neu5Ac(a2-6)Gal(b1-4)GlcNAc(b1-2)Man(a1-6)[Gal(b1-4)GlcNAc(b1-2)Man(a1-3)]Man(b1-4)GlcNAc(b1-4)GlcNAc
Outline: as §1

[34] = biological target: Neu5Ac(a2-6)Gal(b1-4)GlcNAc(b1-2)Man(a1-6)[GlcNAc(b1-2)Man(a1-3)]Man(b1-4)GlcNAc(b1-4)GlcNAc
Outline: as §1

[35] = biological target: Neu5Ac(a2-6)Gal(b1-4)GlcNAc(b1-2)Man(a1-6)[Man(a1-3)]Man(b1-4)GlcNAc(b1-4)GlcNAc
Outline: as §1

[36] = biological target: Neu5Ac(a2-6)Gal(b1-4)GlcNAc(b1-2)[Neu5Ac(a2-6)Gal(b1-4)GlcNAc(b1-4)]Man(a1-3)[GlcNAc(b1-4)][Neu5Ac(a2-6)Gal(b1-4)GlcNAc(b1-2)[Neu5Ac(a2-6)Gal(b1-4)GlcNAc(b1-6)]Man(a1-6)]Man(b1-4)GlcNAc(b1-4)GlcNAc
Outline: as §1

[37] = biological target: Neu5Ac(a2-6)Gal(b1-4)GlcNAc(b1-2)[Neu5Ac(a2-6)Gal(b1-4)GlcNAc(b1-4)]Man(a1-3)[GlcNAc(b1-4)][Neu5Ac(a2-6)Gal(b1-4)GlcNAc(b1-4)Man(a1-6)]Man(b1-4)GlcNAc(b1-4)GlcNAc
Outline: as §1

[38] = biological target: Neu5Ac(a2-6)Gal(b1-4)GlcNAc(b1-2)[Neu5Ac(a2-6)Gal(b1-4)GlcNAc(b1-6)]Man(a1-6)[Neu5Ac(a2-6)Gal(b1-4)GlcNAc(b1-2)Man(a1-3)][GlcNAc(b1-4)]Man(b1-4)GlcNAc(b1-4)GlcNAc
Outline: as §1

[39] = biological target: Neu5Ac(a2-6)Gal(b1-4)GlcNAc(b1-3)Gal(b1-3)GlcNAc
Outline: as §1

[40] = biological target: Neu5Ac(a2-6)Gal(b1-4)GlcNAc(b1-3)Gal(b1-4)GlcNAc
Outline: as §1

[41] = biological target: Neu5Ac(a2-6)Gal(b1-4)GlcNAc(b1-3)Gal(b1-4)GlcNAc(b1-2)Man(a1-3)[Neu5Ac(a2-6)Gal(b1-4)GlcNAc(b1-3)Gal(b1-4)GlcNAc(b1-2)Man(a1-6)]GalNAc
Outline: as §1

[42] = biological target: Neu5Ac(a2-6)Gal(b1-4)GlcNAc(b1-3)Gal(b1-4)GlcNAc(b1-3)Gal(b1-4)GlcNAc
Outline: as §1

B1: EULS2 M1 (Oryza sativa) (protein)
chain: MVYCRANPNYAMTARNGAVVLAPANPKDEYQHWIKDMRWSTSIKDEEGYPAFALVNKATGQAIKHSLGQSHPVRLVPYNPEVMDESVLWTESRDVGNGFRCIRMVNNIYLNFDAFHGDKYHGGVRDGTDIVLWKLCEGDNQRWKIQPYYILEQKLISEEDLNSAVDHHHHHH
- glycan array binding signal (z-score) [1]: 0.699
- glycan array binding signal (z-score) [2]: -0.262
- glycan array binding signal (z-score) [3]: -0.674
- glycan array binding signal (z-score) [4]: -0.196
- glycan array binding signal (z-score) [5]: 0.096
- glycan array binding signal (z-score) [6]: -0.036
- glycan array binding signal (z-score) [7]: -0.835
- glycan array binding signal (z-score) [8]: -0.516
- glycan array binding signal (z-score) [9]: 0.497
- glycan array binding signal (z-score) [10]: 0.991
- glycan array binding signal (z-score) [11]: -1.01
- glycan array binding signal (z-score) [12]: 0.966
- glycan array binding signal (z-score) [13]: -0.034
- glycan array binding signal (z-score) [14]: -0.682
- glycan array binding signal (z-score) [15]: -0.027
- glycan array binding signal (z-score) (Neu5Ac(a2-3)GalNAc): -0.887
- glycan array binding signal (z-score) [16]: -0.339
- glycan array binding signal (z-score) [17]: 0.542
- glycan array binding signal (z-score) [18]: 0.157
- glycan array binding signal (z-score) [19]: 0.893
- glycan array binding signal (z-score) [20]: -0.111
- glycan array binding signal (z-score) (Neu5Ac(a2-6)Gal): -0.345
- glycan array binding signal (z-score) [21]: -0.784
- glycan array binding signal (z-score) (Neu5Ac(a2-6)Gal(b1-4)Glc): -0.303
- glycan array binding signal (z-score) [22]: -0.618
- glycan array binding signal (z-score) [23]: -0.291
- glycan array binding signal (z-score) [24]: 0.03
- glycan array binding signal (z-score) [25]: -0.083
- glycan array binding signal (z-score) [26]: -0.661
- glycan array binding signal (z-score) [27]: 0.558
- glycan array binding signal (z-score) [28]: -0.402
- glycan array binding signal (z-score) [29]: -0.172
- glycan array binding signal (z-score) [30]: -0.134
- glycan array binding signal (z-score) [31]: -0.822
- glycan array binding signal (z-score) [32]: -0.753
- glycan array binding signal (z-score) [33]: -0.682
- glycan array binding signal (z-score) [34]: -0.209
- glycan array binding signal (z-score) [35]: -0.95
- glycan array binding signal (z-score) [36]: -0.902
- glycan array binding signal (z-score) [37]: -0.316
- glycan array binding signal (z-score) [38]: -0.432
- glycan array binding signal (z-score) [39]: -0.705
- glycan array binding signal (z-score) [40]: -0.613
- glycan array binding signal (z-score) [41]: 0.102
- glycan array binding signal (z-score) [42]: -0.578
